B1: UTP18 (protein, UniProt Q9Y5J1 1-556, looked up)
U3 small nucleolar …: MPPERRRRMKLDRRTGAKPKRKPGMRPDWKAGAGPGGPPQKPAPSSQRKPPARPSAAAAAIAVAAAEEERRLRQRNRLRLEEDKPAVERCLEELVFGDVENDEDALLRRLRGPRVQEHEDSGDSEVENEAKGNFPPQKKPVWVDEEDEDEEMVDMMNNRFRKDMMKNASESKLSKDNLKKRLKEEFQHAMGGVPAWAETTKRKTSSDDESEEDEDDLLQRTGNFISTSTSLPRGILKMKNCQHANAERPTVARISSVQFHPGAQIVMVAGLDNAVSLFQVDGKTNPKIQSIYLERFPIFKACFSANGEEVLATSTHSKVLYVYDMLAGKLIPVHQVRGLKEKIVRSFEVSPDGSFLLINGIAGYLHLLAMKTKELIGSMKINGRVAASTFSSDSKKVYASSGDGEVYVWDVNSRKCLNRFVDEGSLYGLSIATSRNGQYVACGSNCGVVNIYNQDSCLQETNPKPIKAIMNLVTGVTSLTFNPTTEILAIASEKMKEAVRLVHLPSCTVFSNFPVIKNKNISHVHTMDFSPRSGYFALGNEKGKALMYRLHHYSDF
B2: WDR6 (protein, UniProt Q9NNW5 1-1121, looked up)
tRNA …: MDALEDYVWPRATSELILLPVTGLECVGDRLLAGEGPDVLVYSLDFGGHLRMIKRVQNLLGHYLIHGFRVRPEPNGDLDLEAMVAVFGSKGLRVVKISWGQGHFWELWRSGLWNMSDWIWDARWLEGNIALALGHNSVVLYDPVVGCILQEVPCTDRCTLSSACLIGDAWKELTIVAGAVSNQLLVWYPATALADNKPVAPDRRISGHVGIIFSMSYLESKGLLATASEDRSVRIWKVGDLRVPGGRVQNIGHCFGHSARVWQVKLLENYLISAGEDCVCLVWSHEGEILQAFRGHQGRGIRAIAAHERQAWVITGGDDSGIRLWHLVGRGYRGLGVSALCFKSRSRPGTLKAVTLAGSWRLLAVTDTGALYLYDVEVKCWEQLLEDKHFQSYCLLEAAPGPEGFGLCAMANGEGRVKVVPINTPTAAVDQTLFPGKVHSLSWALRGYEELLLLASGPGGVVACLEISAAPSGKAIFVKERCRYLLPPSKQRWHTCSAFLPPGDFLVCGDRRGSVLLFPSRPGLLKDPGVGGKARAGAGAPVVGSGSSGGGNAFTGLGPVSTLPSLHGKQGVTSVTCHGGYVYTTGRDGAYYQLFVRDGQLQPVLRQKSCRGMNWLAGLRIVPDGSMVILGFHANEFVVWNPRSHEKLHIVNCGGGHRSWAFSDTEAAMAFAYLKDGDVMLYRALGGCTRPHVILREGLHGREITCVKRVGTITLGPEYGVPSFMQPDDLEPGSEGPDLTDIVITCSEDTTVCVLALPTTTGSAHALTAVCNHISSVRAVAVWGIGTPGGPQDPQPGLTAHVVSAGGRAEMHCFSIMVTPDPSTPSRLACHVMHLSSHRLDEYWDRQRNRHRMVKVDPETRYMSLAVCELDQPGLGPLVAAACSDGAVRLFLLQDSGRILQLLAETFHHKRCVLKVHSFTHEAPNQRRRLLLCSAATDGSLAFWDLTTMLDHDSTVLEPPVDPGLPYRLGTPSLTLQAHSCGINSLHTLPTREGHHLVASGSEDGSLHVFVLAVEMLQLEEAVGEAGLVPQLRVLEEYSVPCAHAAHVTGLKILSPSIMVSASIDQRLTFWRLGHGEPTFMNSTVFHVPDVADMDCWPVSPEFGHRCALGGQGLEVYNWYD
B3: SLC25A24 (protein, UniProt Q6NUK1 1-477, looked up)
Mitochondrial adenyl …: MLRWLRDFVLPTAACQDAEQPTRYETLFQALDRNGDGVVDIGELQEGLRNLGIPLGQDAEEKIFTTGDVNKDGKLDFEEFMKYLKDHEKKMKLAFKSLDKNNDGKIEASEIVQSLQTLGLTISEQQAELILQSIDVDGTMTVDWNEWRDYFLFNPVTDIEEIIRFWKHSTGIDIGDSLTIPDEFTEDEKKSGQWWRQLLAGGIAGAVSRTSTAPLDRLKIMMQVHGSKSDKMNIFGGFRQMVKEGGIRSLWRGNGTNVIKIAPETAVKFWAYEQYKKLLTEEGQKIGTFERFISGSMAGATAQTFIYPMEVMKTRLAVGKTGQYSGIYDCAKKILKHEGLGAFYKGYVPNLLGIIPYAGIDLAVYELLKSYWLDNFAKDSVNPGVMVLLGCGALSSTCGQLASYPLALVRTRMQAQAMLEGSPQLNMVGLFRRIISKEGIPGLYRGITPNFMKVLPAVGISYVVYENMKQTLGVTQK

One data set has as its system mSWI/SNF complexes. Description: mSWI/SNF complex purification with HA-tagged baits and mass spectrometry (peptide counts). Details: species or system human. The following applies: 293_HA-BRD7 bait purification, mass spectrometry; total peptide count per identified protein.
The molecule B1 displayed a Total of 1.

With B2, the Total is listed as 1.

For B3, the Total stood at 1.

Still in this data set, the particulars now being: 293_HA-BRD7 bait purification, mass spectrometry; unique peptide count per identified protein.
B1 gave a Unique of 1.

Consider B2, for which the Unique turned out to be 1.

B3 returned a Unique of 1.

For the origin of these results see US12729225B2, “Non-canonical SWI/SNF complex and uses thereof” (Dana-Farber Cancer Institute, Inc., priority 2018, dated 2026).
